Source: PubChem BioAssay AID1508588 (Peter MacCallum Cancer Centre, 2020)

Purpose: 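Which gene losses make BRAF-mutant melanoma cells more responsive to vemurafenib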 (primary screen)
System: human WM266.4 melanoma cells (BRAF V600 mutant)
Reagent: siRNA pool against human genes, 40 nM
Duration: 96 h from transfection to read-out
Conditions: vemurafenib 300 nM (about IC25), added 48 h after transfection, for 48 h; comparison arm got DMSO vehicle only
Measured: 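Ratios to non-targeting siRNA for cell gain, counted as DAPI nuclei after minus before drug and averaged over two replicates, and for absorbance-read medium lactate per cell; both binned into fold-change classes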
Direction: cell gain with vemurafenib: higher = more cell gain than with non-targeting siRNA; lactate per cell with vemurafenib: higher = more lactate made per cell
Hit rule: 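a knock-down counts as enhancing when its fold-change classes with vehicle and with vemurafenib, taken together, show a stronger drug effect on cell gain or lactate per cell; exact class pairs not stated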
Meaning of the calls: active = enhances vemurafenib effect; inactive = no enhancement seen
Shown is one part, drawn at random, of about 18,000 reagents tested. Over the whole deposit, 790 (4.4%) were called active. 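Calls rest on a combination of fold-change classes in drug and vehicle arms, not all shown here.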

| gene | cell gain with vemurafenib | lactate per cell with vemurafenib | Call |
| --- | --- | --- | --- |
| LRP12 | 0.64 | 0.86 | inactive |
| ZBTB32 | 0.74 | 1.12 | inactive |
| KMT5C | 0.95 | 0.6 | inactive |
| ENTR1 | 1.49 | 0.64 | inactive |
| ZNF526 | 1.18 | 0.95 | inactive |
| ZNF577 | 0.19 | 1.2 | inactive |
| ARHGDIA | 0.86 | 0.79 | inactive |
| FOXP4 | 0.44 | 1.49 | inactive |
| GAGE5 | 0.52 | 1.44 | inactive |
| STMN4 | 0.21 | 1.03 | inactive |
| FBXL15 | 0.24 | 2.79 | inactive |
| JAM2 | 0.72 | 0.66 | inactive |
| NCOR2 | 1.05 | 0.65 | inactive |
| MYOZ1 | 0.35 | 1.1 | inactive |
| EXO5 | 0.54 | 1.43 | inactive |
| TKTL2 | 0.46 | 1.12 | inactive |
| OSTC | 0.31 | 1.5 | inactive |
| LTB4R | -0.01 | 1.4 | inactive |
| GCNT3 | 1.06 | 1.21 | inactive |
| PLOD2 | 0.65 | 0.8 | inactive |
| APLP2 | 0.59 | 0.3 | inactive |
| KIAA2012 | 0.69 | 1.06 | inactive |
| PLCG2 | 0.33 | 0.61 | inactive |
| CREBRF | 0.45 | 0.28 | active |
| TMEM132A | 0.61 | 0.74 | inactive |
| MCCC2 | 0.57 | 0.57 | inactive |
| SH3BGRL3 | 0.32 | 1.2 | inactive |
| MAB21L4 | 0.57 | 1.9 | inactive |
| PMVK | 0.49 | 0.42 | active |
| SLC34A3 | 0.44 | 0.5 | inactive |
| SEC22B | 1.09 | 0.96 | inactive |
| GLT8D2 | 0.5 | 1.19 | inactive |
| SCD | 0.34 | 0.75 | inactive |
| SEC31B | 0.43 | 0.9 | inactive |
| HMGA2 | 0.77 | 0.53 | inactive |
| THEM4 | 1.04 | 0.59 | inactive |
| PRICKLE3 | 1.03 | 0.94 | inactive |
| FASTKD1 | 0.5 | 0.5 | inactive |
| ADPRM | 0.84 | 0.88 | inactive |
| CLPSL1 | 0.88 | 0.44 | active |
| STX7 | 0.83 | 1.06 | inactive |
| KCNG4 | 1.25 | 0.62 | inactive |
| ATP4A | 0.62 | 1.02 | inactive |
| PGP | 0.48 | 1.08 | inactive |
| CST2 | 0.33 | 1.58 | inactive |
| CMAS | 0.65 | 1.23 | inactive |
| LDHAL6B | 0.4 | 0.84 | inactive |
| HK1 | 0.89 | 0.24 | inactive |
| BOK | 0.55 | 0.92 | inactive |
| PITX2 | 0.55 | 1.32 | inactive |
| PLA2G4D | 0.36 | 1.27 | inactive |
| SLC75A1 | 0.41 | 0.42 | active |
| ANGPTL1 | 0.82 | 1.27 | inactive |
| NKX3-2 | 0.6 | 1.24 | inactive |
| IRF5 | 0.31 | 1.26 | inactive |
| CIZ1 | 0.79 | 1.08 | inactive |
| RIMOC1 | 0.48 | 0.84 | inactive |
| TMEM14C | 0.74 | 0.62 | inactive |
| CYP2F1 | 1.04 | 0.84 | inactive |
| DEDD2 | 0.88 | 1.03 | inactive |
| ELMO3 | 0.4 | 0.94 | inactive |
| GJB2 | 0.61 | 1.28 | inactive |
| WNT7B | 0.49 | 0.6 | inactive |
| ACTA1 | 1.42 | 0.54 | inactive |
| TNNI2 | 0.07 | 1.07 | inactive |
| KRTAP19-1 | 0.71 | 0.96 | inactive |
| HOXB5 | 0.82 | 0.8 | inactive |
| OR2A2 | 0.1 | 0.3 | inactive |
| UBA3 | 1.02 | 1.02 | inactive |
| MMP8 | 1 | 0.89 | inactive |
| OR10S1 | 0.85 | 1.2 | inactive |
| PIK3C2G | 0.23 | 1.6 | inactive |
| RSF1 | 0.49 | 1.3 | inactive |
| OR5M8 | 0.91 | 0.82 | inactive |
| STAG3L3 | 0.84 | 0.74 | inactive |
| SOX7 | 0.19 | 1.17 | inactive |
| CSTF2 | 0.5 | 1.19 | inactive |
| IQCE | 1.28 | 0.4 | inactive |
| ZNF554 | 0.75 | 0.79 | inactive |
| COMMD7 | 0.36 | 0.99 | inactive |
| IL1RAPL1 | 0.16 | 0.14 | active |
| DSG2 | 1 | 1.04 | inactive |
| TMEM38B | 0.51 | 0.76 | inactive |
| RBPMS | 0.11 | 1.15 | inactive |
